# Data reported in PubChem BioAssay AID504467 (National Center for Advancing Translational Sciences (NCATS), 2011).
# Among all 330,000 compounds or so, about 7,700 (2.3%) were called active. Inconclusive means that the source gave no clear call. Such entries were picked first, then a sample of the others. Calls come from the whole dose curve; as a rule, active = well fitted inhibition curve with a large enough effect; inconclusive = small, poorly fitted or top-dose-only effect, or effect the other way; inactive = flat fitted curve, though single readings scatter. Potencies of inconclusive entries are doubtful fits and often do not repeat.
# Experiment: qHTS screen for small molecules that inhibit ELG1-dependent DNA repair in human embryonic kidney (HEK293T) cells expressing luciferase-tagged ELG1; note: nearly all actives have a fitted effect of over 55% in size
# Details: HEK293T ELG1-luciferase reporter, luminescence, 16 h, DNA damage induced by 5-fluorouridine; series mostly up to 46.1 µM
# Method in brief: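 In this reporter screen, reduction of luminescence relative to DMSO vehicle indicated activity. Compounds and 5-fluorouridine were added together to 2,000 cells per well, incubated for 16 hr at 37 °C, then developed with ONE-Glo.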
# Potency is the fitted concentration of half-maximal effect.
row,Compound,Potency
1,COc1ccc(S(=O)(=O)N2CCCCC2)cc1NC(=O)C1CC1C (stereo not given),inactive
2,COc1ccc(OC)c(CNC(=O)CCn2c(=O)c3cccn3c3ccc(F)cc32)c1,inactive
3,CCN(CC)S(=O)(=O)c1cccc(S(=O)(=O)N2CCCCC2)c1,inactive
4,O=C(Nc1cnc2ccccc2c1)c1ccco1,"inconclusive: 0.501 µM [activator, partial curve, poor fit]"
5,Cc1ccc(CN2CCNC(=O)C2CC(=O)N(C)C2CCCCC2)cc1 (stereo not given),inactive
6,CCOC(=O)Cn1c(CN2CCc3ccccc3C2)nc2c1c(=O)n(C)c(=O)n2C,"inconclusive: 23.1 µM [inhibitor, single point]"
7,COc1ccc(CN2CCN(Cc3ccc(C)cc3)C(CCO)C2)cc1OC (stereo not given),inactive
8,CC(C)(C)c1csc(NC(=O)C2COc3ccccc3O2)n1 (stereo not given),"inconclusive: 20.6 µM [activator, partial curve]"
9,CC(C)(CO)CNC(=O)c1ccc(OC2CCN(C(=O)C3CC3)CC2)cc1,inactive
10,Cc1nnc(SCc2ccc(Cl)cc2Cl)[nH]c1=O,"inconclusive: 20.6 µM [activator, single point]"
11,Cc1[nH]c(=O)c(C#N)c(C)c1CCC(=O)NCc1ccc(Cl)cc1,"inconclusive: 20.6 µM [inhibitor, single point]"
12,Cc1ccc(NC(=O)CN(C)C(=O)COc2ccccc2-c2ccccc2)cc1,"inconclusive: 25.9 µM [inhibitor, partial curve]"
13,Cn1cc(/C=C/c2nc3ccccc3c(=O)n2-c2cccc([N+](=O)[O-])c2)c2ccccc21,inactive
14,O=C(O)c1ccc2c(=O)n3c(nc2c1)/C(=C/c1ccc(Cl)cc1Cl)CC3,inactive
15,Oc1ccc(Br)cc1-c1n[nH]c(=S)n1Cc1ccccc1,inactive
16,CN1C(=O)C(C)(C)c2cc(S(=O)(=O)N3CCCC(C(=O)Nc4ccc(Cl)cc4)C3)ccc21 (stereo not given),"inconclusive: 23.1 µM [inhibitor, partial curve, poor fit]"
17,Cc1ccc(-c2cc3nc(-c4ccccc4)cc(N)n3n2)cc1,"inconclusive: 9.2 µM [activator, partial curve]"
18,c1ccc(CNc2ccc3c(c2)ncn3C2CCCCC2)nc1,"inconclusive: 16.4 µM [activator, partial curve]"
19,CCOc1cc(/C=N/NC(=O)c2ccc(O)cc2)ccc1Oc1nc(Cl)ncc1F,"inconclusive: 23.1 µM [inhibitor, single point]"
20,CC(=O)Nc1ccc(S(=O)(=O)N2CC3(C)CC2CC(C)(C)C3)cc1 (stereo not given),inactive
21,CCc1cc(=O)oc2c3c(cc(OCC(=O)N[C@H](C(=O)O)[C@H](C)CC)c12)OC(C)(C)CC3,inactive
22,CCc1ccc(OCC(=O)Nc2ccc(N3CCN(C(=O)c4ccccc4)CC3)cc2)cc1,inactive
23,Cc1cccc(NC(=O)c2ccc(N3C(=O)C4C5C=CC(C6CC56)C4C3=O)cc2)c1 (stereo not given),active: 8.2 µM
24,CCCCn1c(N)c(N(CC(C)C)C(=O)CCCc2nc3ccccc3s2)c(=O)[nH]c1=O,inactive

row,Compound,Potency
1,CC1CN(S(=O)(=O)c2cccc(-c3cn4ccccc4n3)c2)CC(C)O1 (stereo not given),"inconclusive: 0.0052 µM [inhibitor, full curve, poor fit]"
2,O=C(CSc1cccc[n+]1[O-])Nc1ccc2c(c1)OCCO2,"inconclusive: 18.3 µM [activator, single point]"
3,CC(C)OCCCN1CC(=O)N2C(c3ccccc3)c3[nH]c4ccccc4c3C[C@H]2C1=O (stereo not given in full),inactive
4,CC(=O)c1ccc(N=Cc2c(O)n(-c3cc(Cl)ccc3N3CCOCC3)c(=O)c3ccccc23)cc1,active: 7.31 µM
5,Cc1nc(NCc2ccccc2)sc1C(=O)Nc1ccccc1,"inconclusive: 23.1 µM [activator, partial curve]"
6,CC1CCCCC1NC(=O)CN1CCN(S(=O)(=O)c2ccc(Br)s2)CC1 (stereo not given),inactive
7,CCCCN1C(=O)C(=O)N(CC(=O)Nc2ccccc2C(=O)OCC)C1=O,inactive
8,Cc1ccc2nc(SCC(=O)NCc3cccs3)c(C#N)cc2c1,"inconclusive: 29.1 µM [activator, partial curve, poor fit]"
9,O=C(c1ccc([N+](=O)[O-])s1)N1CCN(c2ccc(C(F)(F)F)cn2)CC1,"inconclusive: 29.1 µM [inhibitor, single point]"
10,C/C(=N\NC(=O)c1ccc(OC2OCCOC2Oc2ccc(C(=O)N/N=C(\C)c3ccncc3)cc2)cc1)c1ccncc1 (stereo not given),"inconclusive: 16.4 µM [activator, single point]"
11,Cc1ccc(-c2noc(CSc3nnc(CCc4ccccc4)n3-c3ccccc3)n2)cc1,"inconclusive: 20.6 µM [inhibitor, single point]"
12,Cc1cnc(C(=O)OC(C)C(=O)Nc2ccc(Oc3ccccc3)cc2)cn1 (stereo not given),"inconclusive: 29.1 µM [activator, single point]"
13,O=C(Nc1ncc(Cc2cc(Cl)ccc2Cl)s1)c1ccc([N+](=O)[O-])cc1,"inconclusive: 18.4 µM [inhibitor, partial curve]"
14,COc1ccc(NC(=O)C(OC(=O)c2ccc([N+](=O)[O-])o2)c2ccccc2)cc1Cl (stereo not given),"inconclusive: 16.4 µM [activator, partial curve, poor fit]"
15,CC(C)c1ccc(C(=O)NCCCc2ccccc2)cc1,"inconclusive: 16.4 µM [activator, partial curve]"
16,CCCCCN(C(=O)CCC(=O)OCC(=O)N1CCCCC1)c1c(N)n(CCCC)c(=O)[nH]c1=O,inactive
17,COc1ccc(-c2nc(C(=O)NCC3CCCO3)cc3c2[nH]c2ccccc23)cc1 (stereo not given),"inconclusive: 3.26 µM [inhibitor, partial curve, poor fit]"
18,Oc1c(Cl)cc(Cl)cc1C=Nc1ccc2c(c1)OCCO2,"inconclusive: 20.6 µM [activator, partial curve]"
19,CCc1ccc(-n2c(=O)c3ccccc3n(CC(=O)C(C)(C)C)c2=O)cc1,inactive
20,CCOC(=O)Cn1c(S(=O)(=O)Cc2ccccc2)nc2ccccc21,"inconclusive: 23.1 µM [activator, single point]"
21,Cc1ccc(-c2nc(SCC(=O)NCC3CCCO3)c(-c3ccccc3)[nH]2)cc1 (stereo not given),"inconclusive: 29.1 µM [inhibitor, single point]"
22,CN(C)c1ccc(N/C=C/C(=O)c2ccccc2)cc1,"inconclusive: 2.06 µM [activator, partial curve, poor fit]"
23,CC(C)C(NC(=O)c1cccs1)c1nnc(SCC(=O)Nc2nccs2)n1C (stereo not given),"inconclusive: 18.4 µM [activator, partial curve, poor fit]"
24,COc1ccccc1C(=O)N/C(=N/c1nc(C)cc(C)n1)Nc1ccccc1,"inconclusive: 29.1 µM [inhibitor, single point]"

row,Compound,Potency
1,C/C(=N\NC(=O)C1CCCN(S(=O)(=O)c2ccccc2)C1)c1ccccn1 (stereo not given),"inconclusive: 29.1 µM [activator, single point]"
2,Cc1nn(-c2ccccc2)c(C)c1C(=O)OC(C)C(=O)NC1CCCCC1C (stereo not given),"inconclusive: 20.6 µM [inhibitor, single point]"
3,Cc1ccc(S(=O)(=O)N2CCCC(NC(=O)N3CCN(c4ccccc4)CC3)C2)cc1 (stereo not given),"inconclusive: 20.6 µM [inhibitor, partial curve, poor fit]"
4,Cc1ccc(CNC(=O)CNS(=O)(=O)c2ccc3nc(C)sc3c2)cc1,"inconclusive: 2.91 µM [inhibitor, partial curve, poor fit]"
5,COCC(C)NS(=O)(=O)c1ccc(C(=O)NC(Cc2ccccc2)c2ccccc2)cc1 (stereo not given),inactive
6,CCNC(=S)N(CCc1c(C)[nH]c2ccc(C)cc12)Cc1cccs1,"inconclusive: 29.1 µM [inhibitor, single point]"
7,O=C(Nc1nc2ccccc2n1Cc1ccc(Cl)cc1)c1ccco1,"inconclusive: 29.1 µM [activator, single point]"
8,COc1ccc(CNc2nc3nc(C)c(Cl)c(C)n3n2)cc1,"inconclusive: 14.6 µM [activator, partial curve]"
9,CN(C)CCCC(C)(O)C(Cc1ccccc1)c1ccccc1 (stereo not given),inactive
10,O=C(Nc1cccc2ccccc12)OCc1cncs1,"inconclusive: 18.3 µM [activator, single point]"
11,CC(C)CN1CCC(=O)N([C@H](COc2ccccc2)c2ccccc2)CC1,inactive
12,CCc1ccc(-c2nc(CS(=O)CC(=O)NCCN3CCCCCC3)c(C)o2)cc1 (stereo not given),"inconclusive: 25.9 µM [activator, single point]"
13,OC(COCC(F)(F)C(F)(F)C(F)(F)C(F)F)Cn1c2ccccc2c2ccccc21 (stereo not given),inactive
14,Cc1ccc(C(=O)N/N=C\c2cccc(OC(=O)c3cccc(F)c3)c2)cn1,inactive
15,O=C(N/N=C/C1CC2C=CC1C2)c1ccccc1O (stereo not given),inactive
16,O=C1C=CCC(/C=C/c2ccccc2)O1 (stereo not given),active: 18.4 µM
17,Cc1cc(C(=O)N2CCc3c([nH]c4ccccc34)C2c2c(F)cccc2Cl)no1 (stereo not given),"inconclusive: 23.1 µM [inhibitor, single point]"
18,CC1CCCN(CCCOc2ccc(Br)cc2Cl)C1 (stereo not given),"inconclusive: 18.3 µM [activator, single point]"
19,CC(CCc1ccccc1)NC(=O)CNC(=O)c1cccs1 (stereo not given),inactive
20,CC(C)n1c(=S)[nH]c2scc(-c3cccs3)c2c1=O,"inconclusive: 32.6 µM [inhibitor, single point]"
21,CC1CN(c2nc3c(c(=O)n(Cc4ccc(Cl)c(Cl)c4)c(=O)n3C)n2C)CC(C)O1 (stereo not given),"inconclusive: 23.1 µM [inhibitor, single point]"
22,Cn1c(N=Nc2ccccc2)nc2ccccc21,"inconclusive: 0.58 µM [activator, full curve]"

# Some of these compounds in order of heavy-atom count, low to high.
row,Compound,Potency
16,O=C1C=CCC(/C=C/c2ccccc2)O1 (stereo not given),active: 18.4 µM
4,O=C(Nc1cnc2ccccc2c1)c1ccco1,"inconclusive: 0.501 µM [activator, partial curve, poor fit]"
20,CC(C)n1c(=S)[nH]c2scc(-c3cccs3)c2c1=O,"inconclusive: 32.6 µM [inhibitor, single point]"
22,CN(C)c1ccc(N/C=C/C(=O)c2ccccc2)cc1,"inconclusive: 2.06 µM [activator, partial curve, poor fit]"
15,CC(C)c1ccc(C(=O)NCCCc2ccccc2)cc1,"inconclusive: 16.4 µM [activator, partial curve]"
19,CC(CCc1ccccc1)NC(=O)CNC(=O)c1cccs1 (stereo not given),inactive
17,Cc1ccc(-c2cc3nc(-c4ccccc4)cc(N)n3n2)cc1,"inconclusive: 9.2 µM [activator, partial curve]"
11,Cc1[nH]c(=O)c(C#N)c(C)c1CCC(=O)NCc1ccc(Cl)cc1,"inconclusive: 20.6 µM [inhibitor, single point]"
7,O=C(Nc1nc2ccccc2n1Cc1ccc(Cl)cc1)c1ccco1,"inconclusive: 29.1 µM [activator, single point]"
13,O=C(Nc1ncc(Cc2cc(Cl)ccc2Cl)s1)c1ccc([N+](=O)[O-])cc1,"inconclusive: 18.4 µM [inhibitor, partial curve]"
19,CCc1ccc(-n2c(=O)c3ccccc3n(CC(=O)C(C)(C)C)c2=O)cc1,inactive
2,Cc1nn(-c2ccccc2)c(C)c1C(=O)OC(C)C(=O)NC1CCCCC1C (stereo not given),"inconclusive: 20.6 µM [inhibitor, single point]"
17,Cc1cc(C(=O)N2CCc3c([nH]c4ccccc34)C2c2c(F)cccc2Cl)no1 (stereo not given),"inconclusive: 23.1 µM [inhibitor, single point]"
6,CCOC(=O)Cn1c(CN2CCc3ccccc3C2)nc2c1c(=O)n(C)c(=O)n2C,"inconclusive: 23.1 µM [inhibitor, single point]"
13,OC(COCC(F)(F)C(F)(F)C(F)(F)C(F)F)Cn1c2ccccc2c2ccccc21 (stereo not given),inactive
3,CC(C)OCCCN1CC(=O)N2C(c3ccccc3)c3[nH]c4ccccc4c3C[C@H]2C1=O (stereo not given in full),inactive
11,Cc1ccc(-c2noc(CSc3nnc(CCc4ccccc4)n3-c3ccccc3)n2)cc1,"inconclusive: 20.6 µM [inhibitor, single point]"
16,CCCCCN(C(=O)CCC(=O)OCC(=O)N1CCCCC1)c1c(N)n(CCCC)c(=O)[nH]c1=O,inactive
4,CC(=O)c1ccc(N=Cc2c(O)n(-c3cc(Cl)ccc3N3CCOCC3)c(=O)c3ccccc23)cc1,active: 7.31 µM
10,C/C(=N\NC(=O)c1ccc(OC2OCCOC2Oc2ccc(C(=O)N/N=C(\C)c3ccncc3)cc2)cc1)c1ccncc1 (stereo not given),"inconclusive: 16.4 µM [activator, single point]"
